Data as given in patent publication US20190153106A1.
Results are given in words; binding and its absence hold for the method and conditions named. Some entries that bind do so weakly or less than the wild type.

By UniProt entry, the sequences of proteins in these tests, tags left out. Where a name states a change or a piece, a line headed by the entry shows the natural chain unless it says otherwise.
UniProt B0L3A2: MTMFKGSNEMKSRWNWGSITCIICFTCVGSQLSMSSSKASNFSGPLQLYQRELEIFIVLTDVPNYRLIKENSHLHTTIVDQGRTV

Columns and labels:
[1] = target: human DEspR (dual endothelin-1/VEGF signal peptide receptor) (human) (UniProt B0L3A2); experiment: FACS displacement of AF568-7C5B2 (10 µg/ml) from Panc1 CSCs; peptide at 100x molar excess
[2] = target: human DEspR (dual endothelin-1/VEGF signal peptide receptor) (human) (UniProt B0L3A2); experiment: live-cell confocal imaging of Panc1 tumor cells, uptake of the AF568-labelled 7C5 murine mAb
[3] = target: human DEspR (dual endothelin-1/VEGF signal peptide receptor) (human) (UniProt B0L3A2); experiment: internalization imaging on Panc1 cells
[4] = target: human DEspR (dual endothelin-1/VEGF signal peptide receptor) (human) (UniProt B0L3A2); experiment: confocal time series, AF568-labelled mAb on Panc1 tumor cells
[5] = target: human DEspR (dual endothelin-1/VEGF signal peptide receptor) (human) (UniProt B0L3A2); experiment: FACS displacement of AF568-labelled 7C5B2 on Panc1 CSCs
[6] = target: human DEspR (dual endothelin-1/VEGF signal peptide receptor) (human) (UniProt B0L3A2); experiment: FACS displacement on Panc1 CSCs
[7] = target: human DEspR (dual endothelin-1/VEGF signal peptide receptor) (human) (UniProt B0L3A2); experiment: live-cell confocal imaging of Panc1 tumor cells, internalization
[8] = target: human DEspR (dual endothelin-1/VEGF signal peptide receptor) (human) (UniProt B0L3A2); experiment: FACS of Panc1 CSCs with 10 µg/ml AF568-7C5B2, 4 °C, 20 min

Measured: binding

B1: VEGFsp17 (VEGF signal peptide 17) (ligand)
peptide: MNFLLSWVHWSLALLLY
binds: [1]

B2: VEGFsp26 (VEGF signal peptide 26) (ligand)
peptide: MNFLLSWVHWSLALLLYLHHAKWSQA
binds: [1]

B3: 7C5B2 mouse anti-human DEspR monoclonal antibody (antibody, V domains shown)
VH: QVQLKESGPGLVAPSQSLSITCTVSGFSLKSYAVSWVRQPPGKGLEWLGVIWGDGSTDYHSALISRLSISKDNSKSQFFLRLNSLQTDDTATYYCARGTGTGFAYWGQGTLVTVSA
VL: DVVMTQTPLSLPVSLGDQASISCRSSQSLVHSNGNTYLHWYLQKPGQSPKLLIYKVSNRFSGVPDRFSGSGSGTDFTLKISRVEAEDLGIYFCSQCTHIPWTFGGGTNLEIK
not listed: [1]
binds: all other assays above
